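293T-iDUX4 dual-reporter cells; luminescence of the tet-on Italica luciferase control is read after 24 h.
The test concentration is not given here.
Percent change in the Italica control signal; more negative values mean stronger inhibition, which points to nonspecific, tet-on or cytotoxic effects.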

Values are in %.
Common to all entries: measured here: Italica tet-on control reporter.
Part of the compounds only, not a random draw; the main read-out is not listed here.

- COc1cccc(S(=O)(=O)N2C[C@@H]3N[C@H](C2)C3c2ccc(-c3ccccc3OC)cc2)c1 (some centres unmarked) | activity change -16.96%
- N#Cc1cccc(-c2ccc(C3[C@@H]4CN(S(=O)(=O)c5cccc(Cl)c5)C[C@H]3N4)cc2)c1 (some centres unmarked) | activity change -4.582%
- Cc1cccc(-c2ccc(C3[C@@H]4CN(C(=O)Nc5ccc(F)cc5)C[C@H]3N4)cc2)c1 (some centres unmarked) | activity change 6.163%
- O=C(C1CC1)N1CC[C@@H]2[C@H]1c1cc(Br)ccc1N[C@@H]2CO | activity change -22.95%
- C[C@H]1CN([C@@H](C)CO)C(=O)c2c(c3ccccc3n2C)-c2ccccc2CO[C@@H]1CN(C)S(=O)(=O)c1ccccc1F | activity change -6.688%
- O=C(Cc1ccccc1)N1CCCCN2[C@@H](CO)[C@H](c3ccc(C#CC4(O)CCCC4)cc3)[C@@H]2C1 | activity change -12.57%
- COc1ccc2c3c([nH]c2c1)[C@H](CO)N(Cc1ccccc1)CC31CN(C(=O)c2ccccn2)C1 | activity change -18.39%
- O=C(c1ccccn1)N1C[C@@H]2N[C@H](C1)C2c1ccc(-c2ccccc2F)cc1 (some centres unmarked) | activity change -57.04%
- C[C@@H]1CN([C@@H](C)CO)C(=O)CCCn2nncc2CO[C@H]1CN(C)Cc1ccc(Cl)c(Cl)c1 | activity change -8.962%
- C[C@@H]1CN([C@@H](C)CO)C(=O)c2c(c3ccccc3n2C)-c2ccccc2CO[C@H]1CN(C)S(=O)(=O)c1ccc(C#N)cc1 | activity change -12.53%
- CCCNC(=O)N1[C@H](CO)[C@@H](c2ccccc2-c2ccc(F)cc2)[C@@H]1C#N | activity change -8.062%
- Cc1cccc(-c2ccc([C@H]3[C@H]4CN(C(=O)c5ccc6c(c5)OCO6)CC(=O)N4[C@H]3CO)cc2)c1 | activity change -9.348%
- COc1ccc2c3c([nH]c2c1)[C@@H](CO)N(Cc1ccccc1Cl)CC31CN(C(C)=O)C1 | activity change -68.57%
- CCCC#Cc1ccc([C@H]2[C@@H](CO)N3C(=O)CN(S(=O)(=O)Cc4ccccc4)C[C@H]23)cc1 | activity change -46.24%
- O=C(C[C@H]1CC[C@@H]2[C@H](COC[C@@H](O)CN2Cc2cccc(-c3ccncc3)c2)O1)N1CCN(c2ccccc2)CC1 | activity change -29.24%
- COc1ccc2c3c(n(C)c2c1)[C@H](CO)N(C(=O)c1ccccc1)CC31CN(Cc2ccccc2OC)C1 | activity change -97.66%
- C[C@H](C(=O)N(C)C[C@H]1OCc2ccccc2-c2c(n(C)c3ccccc23)C(=O)N([C@@H](C)CO)C[C@@H]1C)c1ccccc1 | activity change -25.21%
- O=C(C[C@@H]1CC[C@@H]2[C@H](COC[C@@H](O)CN2Cc2ccc(Oc3ccccc3)cc2)O1)N1CCOCC1 | activity change -10.13%
- COc1cccc(S(=O)(=O)Nc2ccc3c(c2)[C@@H]2C[C@H](CC(=O)NCc4cccc(F)c4)O[C@@H](CO)[C@@H]2O3)c1 | activity change -13.07%
- CN(C)C(=O)c1ccc(-c2ccc(C3[C@@H]4CN(S(=O)(=O)c5ccccc5)C[C@H]3N4)cc2)cc1 (some centres unmarked) | activity change -1.097%
- C[C@@H]1CN([C@@H](C)CO)C(=O)c2c(c3ccccc3n2C)-c2ccccc2CO[C@H]1CN(C)Cc1ccccc1C(F)(F)F | activity change 1.06%
- C[C@H](NC(=O)C[C@H]1C[C@H]2c3cc(NC(=O)Cc4ccncc4)ccc3O[C@H]2[C@H](CO)O1)c1ccccc1 | activity change 4.67%
- COc1ccccc1-c1ccc2c(c1)[C@@H]1[C@@H](CCN1S(=O)(=O)c1ccccc1F)[C@H](CO)N2 | activity change -28.65%
- COc1cccc(NC(=O)N2CC3(C2)[C@H](c2ccccc2)[C@H](CO)N3C(=O)C2CCCC2)c1 | activity change 1.584%
- N#C[C@H]1[C@@H](c2ccccc2C2=CCCC2)[C@H](CO)N1S(=O)(=O)c1cccc(F)c1 | activity change -6.436%
- COc1cccc(-c2ccc([C@@H]3[C@@H](CO)N4CCCCN(C(=O)c5ccc6c(c5)OCO6)C[C@H]34)cc2)c1 | activity change -0.6197%
- O=C(C1CCCC1)N1CC2(C1)[C@@H](c1ccccc1)[C@H](CO)N2Cc1ccc(Cl)cc1 | activity change 2.859%
- COc1cccc(-c2ccc3c(c2)[C@@H]2[C@@H](CCN2C(=O)C2CCCCC2)[C@@H](CO)N3)c1 | activity change -41.58%
- COc1ccc(-c2ccc3c(c2)[C@@H]2[C@@H](CCN2C(=O)Cc2ccccc2)[C@@H](CO)N3C)cc1 | activity change -29.85%
- O=C(c1ccc2c(c1)OCO2)N1CC(=O)N2[C@H](CO)[C@@H](c3ccc(C#CCC4CCCC4)cc3)[C@H]2C1 | activity change -6.248%
- COc1ccc(S(=O)(=O)N2C[C@@H](O)COC[C@H]3O[C@@H](CC(=O)NCc4ccc(Cl)c(Cl)c4)CC[C@@H]32)cc1 | activity change -29.48%
- C[C@H]1CN([C@@H](C)CO)C(=O)CCCn2nncc2CO[C@@H]1CN(C)Cc1ccc(-c2ccccc2)cc1 | activity change 3.703%
- O=C(C[C@@H]1C[C@@H]2c3cc(NS(=O)(=O)c4ccc(F)cc4)ccc3O[C@@H]2[C@@H](CO)O1)NCCc1ccccc1 | activity change -15.05%

Once more, the final 4:

* O=C(c1ccc2c(c1)OCO2)N1CC(=O)N2[C@H](CO)[C@@H](c3ccc(C#CCC4CCCC4)cc3)[C@H]2C1 : activity change -6.248%
* COc1ccc(S(=O)(=O)N2C[C@@H](O)COC[C@H]3O[C@@H](CC(=O)NCc4ccc(Cl)c(Cl)c4)CC[C@@H]32)cc1 : activity change -29.48%
* C[C@H]1CN([C@@H](C)CO)C(=O)CCCn2nncc2CO[C@@H]1CN(C)Cc1ccc(-c2ccccc2)cc1 : activity change 3.703%
* O=C(C[C@@H]1C[C@@H]2c3cc(NS(=O)(=O)c4ccc(F)cc4)ccc3O[C@@H]2[C@@H](CO)O1)NCCc1ccccc1 : activity change -15.05%

Source: PubChem BioAssay AID1224904 (Broad Institute, 2016).